The list does not hold the whole screen: it gathers tests that were run many times, whatever their T/C, doses with no T/C, and many T/C values between a quarter and a half above the control. Further doses and runs are listed elsewhere. T/C gives the treated animals as a percentage of the vehicle group. Some entries give survivors of the animals treated and no T/C: the source files T/C as zero there, which appears to mark a toxic dose or a test without result, not a measured value. Some doses without a T/C left all or most animals alive at the check, yet need not have been tolerated: survival well below the control is almost never listed, so the zero probably covers shortened survival too. Survivors were counted at the toxicity check, usually on the fifth day, unless a day is given; later deaths do not show. Schedules are NCI's codes, taken here to give the interval after Q, in days (D) or hours (H), and the number of doses after X. Some doses were run more than once; their values stand side by side, smallest first. For survival time, the PubChem record calls one and a half times the control and up active, and a quarter to a half above the control has no call in these data; cut-offs in other NCI protocols can differ. Some T/C values are followed by the survivors on the day toxicity was checked, most often the fifth; without a count, all were alive then.
Tested on: P1534 leukemia ip, CD2F1 mice, survival T/C
Experiment: NCI In Vivo Anticancer Drug Screen. Data for tumor model P1534 Leukemia (intraperitoneal) in CD2F1 (CDF1) mice
Conditions: higher T/C = longer survival
Procedure: The antitumor activity of compounds was measured in mice bearing transplantable tumors. Survival or tumor size were measured and the results are expressed as the measurement made in the treated group (T) divided by the measurement made in the vehicle treated control group (C). The tumor model used in this assay is P1534 Leukemia (intraperitoneal) in CD2F1 (CDF1) mice

[1] = T/C endpoint: mean survival time, dose: 2.5 mg/kg/injection, schedule: Q01DX010 (ip), vehicle: saline
[2] = T/C endpoint: mean survival time, dose: 5.0 mg/kg/injection, schedule: Q01DX010 (ip), vehicle: saline
[3] = T/C endpoint: mean survival time, dose: 10.0 mg/kg/injection, schedule: Q01DX010 (ip), vehicle: saline
[4] = T/C endpoint: mean survival time, dose: 4.0 mg/kg/injection, schedule: Q01DX010 (ip), vehicle: saline
[5] = T/C endpoint: mean survival time, dose: 50.0 mg/kg/injection, schedule: Q01DX010 (ip), vehicle: saline
[6] = T/C endpoint: mean survival time, dose: 100.0 mg/kg/injection, schedule: Q01DX010 (ip), vehicle: saline
[7] = T/C endpoint: mean survival time, dose: 200.0 mg/kg/injection, schedule: Q01DX010 (ip), vehicle: saline
[8] = T/C endpoint: mean survival time, dose: 60.0 mg/kg/injection, schedule: Q01DX010 (ip), vehicle: saline
[9] = T/C endpoint: mean survival time, dose: 15.0 mg/kg/injection, schedule: Q01DX010 (ip), vehicle: saline
[10] = T/C endpoint: mean survival time, dose: 4.0 mg/kg/injection, schedule: Q01DX010 (ip), vehicle: alkali diluted with saline
[11] = T/C endpoint: mean survival time, dose: 8.0 mg/kg/injection, schedule: Q01DX010 (ip), vehicle: alkali diluted with saline
[12] = T/C endpoint: mean survival time, dose: 16.0 mg/kg/injection, schedule: Q01DX010 (ip), vehicle: alkali diluted with saline
[13] = T/C endpoint: mean survival time, dose: 120.0 mg/kg/injection, schedule: Q01DX010 (ip), vehicle: saline
[14] = T/C endpoint: mean survival time, dose: 125.0 mg/kg/injection, schedule: Q01DX010 (ip), vehicle: saline
[15] = T/C endpoint: mean survival time, dose: 250.0 mg/kg/injection, schedule: Q01DX010 (ip), vehicle: saline
[16] = T/C endpoint: mean survival time, dose: 150.0 mg/kg/injection, schedule: Q01DX005 (sc), vehicle: steroid suspending solution
[17] = T/C endpoint: mean survival time, dose: 300.0 mg/kg/injection, schedule: Q01DX005 (sc), vehicle: steroid suspending solution

SMILES: CN[C@H]1CCc2cc(OC)c(OC)c(OC)c2-c2ccc(OC)c(=O)cc21
- T/C (T/C endpoint: mean survival time, dose: 1.25 mg/kg/injection, schedule: Q01DX010 (ip), vehicle: saline): 128 % of control
- T/C [1]: 128 % of control
- survivor count [2]: 6 of 6
- survivor count [3]: 6 of 6

SMILES: CS(=O)(=O)OCCN(CCOS(C)(=O)=O)c1ccc(N=O)cc1
- T/C (T/C endpoint: mean survival time, dose: 0.5 mg/kg/injection, schedule: Q01DX010 (ip), vehicle: saline): 148 % of control
- T/C (T/C endpoint: mean survival time, dose: 1.0 mg/kg/injection, schedule: Q01DX010 (ip), vehicle: saline): 129 % of control
- survivor count (T/C endpoint: mean survival time, dose: 2.0 mg/kg/injection, schedule: Q01DX010 (ip), vehicle: saline): 5 of 6
- survivor count [4]: 1 of 6

SMILES: CCCCCCCCCCCCCCCCC(C(=O)O)C(O)(CC(=O)O)C(=O)O (stereo not drawn)
- survivor count [5]: 5 of 6
- survivor count [6]: 0 of 6
- survivor count [7]: 0 of 6

SMILES: C/C=C1\CN2C3C[C@H]1C(C(=O)OC)[C@H]2Cc1c3[nH]c2ccccc12 (stereo partly drawn)
- survivor count [8]: 4 of 6

SMILES: COc1ccc2cc3[n+](cc2c1OC)CCc1cc2c(cc1-3)OCO2
- survivor count (T/C endpoint: mean survival time, dose: 12.5 mg/kg/injection, schedule: Q01DX010 (ip), vehicle: saline): 4 of 6
- survivor count (T/C endpoint: mean survival time, dose: 25.0 mg/kg/injection, schedule: Q01DX010 (ip), vehicle: saline): 0 of 6
- survivor count [5]: 0 of 6
- survivor count [6]: 0 of 6

SMILES: Nc1nncs1
- survivor count [9]: 6 of 6
- survivor count (T/C endpoint: mean survival time, dose: 30.0 mg/kg/injection, schedule: Q01DX010 (ip), vehicle: saline): 6 of 6
- survivor count [8]: 6 of 6

SMILES: O=C(C[C@H]1CCC[C@H](CC(=O)c2ccccc2)N1)c1ccccc1
- survivor count [6]: 0 of 6

SMILES: NC(Cn1ccc(=O)c(O)c1)C(=O)O (stereo not drawn)
- survivor count (T/C endpoint: mean survival time, dose: 400.0 mg/kg/injection, schedule: Q01DX010 (ip), vehicle: saline): 6 of 6

SMILES: CC1CCC(NC(=O)N(CCCl)N=O)CC1 (stereo not drawn)
- T/C (T/C endpoint: median survival time, dose: 2.0 mg/kg/injection, schedule: Q01DX005 (ip), vehicle: other): 132 % of control

SMILES: NC(Cc1ccc(N(CCCl)CCCl)cc1)C(=O)O (stereo not drawn)
- T/C (T/C endpoint: mean survival time, dose: 2.0 mg/kg/injection, schedule: Q01DX010 (ip), vehicle: alkali diluted with saline): 116, 121, 122, 132 % of control [5 of 6 alive]
- T/C [10]: 94, 116, 123 % of control
- survivor count [10]: 0 of 6
- T/C [11]: 92, 99, 106 % of control
- survivor count [11]: 6 of 6
- T/C [12]: 97 and 101 % of control
- survivor count [12]: 6 of 6
- survivor count (T/C endpoint: mean survival time, dose: 32.0 mg/kg/injection, schedule: Q01DX010 (ip), vehicle: alkali diluted with saline): 2 of 6, 3 of 6, 6 of 6

SMILES: Cc1cc(O)c2cc3c(O)c(O)ccc3cc2c1
- survivor count [4]: 5 of 6
- survivor count (T/C endpoint: mean survival time, dose: 8.0 mg/kg/injection, schedule: Q01DX010 (ip), vehicle: saline): 3 of 6

SMILES: CN(C)c1ccc(Nc2c3ccccc3nc3ccccc23)cc1
- T/C (T/C endpoint: mean survival time, dose: 54.0 mg/kg/injection, schedule: Q01DX010 (ip), vehicle: saline): 125 % of control
- survivor count [13]: 6 of 6

SMILES: O=c1cnn(C2OC(CO)C(O)C2O)c(=O)[nH]1 (stereo not drawn)
- survivor count (T/C endpoint: mean survival time, dose: 1500.0 mg/kg/injection, schedule: Q01DX010 (ip), vehicle: saline): 6 of 6
- survivor count (T/C endpoint: mean survival time, dose: 1600.0 mg/kg/injection, schedule: Q01DX010 (ip), vehicle: saline): 5 of 6
- survivor count (T/C endpoint: mean survival time, dose: 3100.0 mg/kg/injection, schedule: Q01DX010 (ip), vehicle: saline): 5 of 6
- survivor count (T/C endpoint: mean survival time, dose: 3200.0 mg/kg/injection, schedule: Q01DX010 (ip), vehicle: saline): 1 of 6 and 6 of 6

SMILES: CC(=O)NC1=C(N2CC2)C(=O)C(NC(C)=O)=C(N2CC2)C1=O
- T/C (T/C endpoint: mean survival time, dose: 125.0 micrograms/kg/injection, schedule: Q01DX010 (ip), vehicle: saline): 125 % of control
- T/C (T/C endpoint: mean survival time, dose: 250.0 micrograms/kg/injection, schedule: Q01DX010 (ip), vehicle: saline): 135 % of control

SMILES: C[N+](C)(C)c1ncnc2nc[nH]c12
- survivor count [13]: 6 of 6

SMILES: C[C@]12C=CC(=O)C=C1CC[C@@H]1[C@@H]2[C@@H](O)C[C@@]2(C)[C@H]1CC[C@]2(O)C(=O)CO
- survivor count (T/C endpoint: mean survival time, dose: 50.0 mg/kg/injection, schedule: Q01DX010 (sc), vehicle: steroid suspending solution): 6 of 6
- survivor count (T/C endpoint: mean survival time, dose: 100.0 mg/kg/injection, schedule: Q01DX010 (sc), vehicle: steroid suspending solution): 6 of 6

SMILES: Cn1c(=O)c2c(ncn2C)n(C)c1=O
- survivor count [7]: 3 of 6

SMILES: CCCCNc1ncnc2c1cnn2C
- survivor count [14]: 2 of 6 and 5 of 6
- survivor count [15]: 0 of 6

SMILES: O=CC1CO1 (stereo not drawn)
- survivor count (T/C endpoint: mean survival time, dose: 66.0 mg/kg/injection, schedule: Q01DX010 (ip), vehicle: steroid suspending solution): 6 of 6
- survivor count (T/C endpoint: mean survival time, dose: 100.0 mg/kg/injection, schedule: Q01DX010 (ip), vehicle: steroid suspending solution): 6 of 6

SMILES: CNC(C)C(O)c1ccccc1 (stereo not drawn)
- survivor count (T/C endpoint: mean survival time, dose: 150.0 mg/kg/injection, schedule: Q01DX010 (ip), vehicle: saline): 5 of 6
- survivor count (T/C endpoint: mean survival time, dose: 300.0 mg/kg/injection, schedule: Q01DX010 (ip), vehicle: saline): 0 of 6

SMILES: Nc1nc(=S)c2[nH]cnc2[nH]1
- T/C [2]: 137 % of control
- T/C [3]: 131 % of control

SMILES: C[C@]12CCC(=O)C=C1CC[C@@H]1[C@@H]2[C@@H](O)C[C@@]2(C)[C@H]1CC[C@]2(O)C(=O)CO
- survivor count (T/C endpoint: mean survival time, dose: 100.0 mg/kg/injection, schedule: Q01DX005 (sc), vehicle: steroid suspending solution): 10 of 10
- T/C [16]: 92 % of control
- survivor count [16]: 4 of 10, 5 of 10, 6 of 10, 9 of 10, 10 of 10
- survivor count (T/C endpoint: mean survival time, dose: 200.0 mg/kg/injection, schedule: Q01DX005 (sc), vehicle: steroid suspending solution): 10 of 10
- survivor count (T/C endpoint: mean survival time, dose: 250.0 mg/kg/injection, schedule: Q01DX005 (sc), vehicle: steroid suspending solution): 10 of 10
- T/C [17]: 86 % of control
- survivor count [17]: 0 of 10, 3 of 10, 6 of 10, 10 of 10

SMILES: Cc1cc(N(CCCl)CCCl)ccc1C=Nc1ccccc1-c1ccccc1
- survivor count [7]: 6 of 6

SMILES: CC1CCOS(=O)O1 (stereo not drawn)
- survivor count (T/C endpoint: mean survival time, dose: 80.0 mg/kg/injection, schedule: Q01DX010 (ip), vehicle: saline): 6 of 6

SMILES: O=CC(NC(=O)N(CCCl)N=O)C(O)C(O)C(O)CO (stereo not drawn)
- T/C (T/C endpoint: median survival time, dose: 1.25 mg/kg/injection, schedule: Q01DX005 (ip), vehicle: other): 132 % of control [4 of 6 alive]

SMILES: O=C(O)c1[nH]c(=O)[nH]c(=O)c1F
- T/C [1]: 143 % of control

SMILES: CC(=O)Nc1c(Cl)cc2c(c1Cl)Cc1cc([N+](=O)[O-])ccc1-2
- survivor count [14]: 4 of 6
- survivor count [15]: 6 of 6

SMILES: Nc1nc(N)c2nc(CNc3ccc(C(=O)NC(CCC(=O)O)C(=O)O)cc3)cnc2n1 (stereo not drawn)
- T/C (T/C endpoint: mean survival time, dose: 100.0 micrograms/kg/injection, schedule: Q01DX010 (ip), vehicle: other): 145 % of control
- T/C (T/C endpoint: median survival time, dose: 0.03 mg/kg/injection, schedule: Q01DX009 (ip), vehicle: sodium bicarbonate): 130 % of control

SMILES: CCC(C)n1ncc2c(N(C)C)ncnc21 (stereo not drawn)
- survivor count (T/C endpoint: mean survival time, dose: 130.0 mg/kg/injection, schedule: Q01DX010 (ip), vehicle: saline): 5 of 6

SMILES: O=C(O)CCCc1ccc(N(CCCl)CCCl)cc1
- T/C (T/C endpoint: mean survival time, dose: 12.5 mg/kg/injection, schedule: Q01DX010 (ip), vehicle: other): 125 % of control
- survivor count (T/C endpoint: mean survival time, dose: 50.0 mg/kg/injection, schedule: Q01DX010 (ip), vehicle: other): 0 of 6

SMILES: O=C(Nc1ccc(C2=NCCN2)cc1)c1cccc(C(=O)Nc2ccc(C3=NCCN3)cc2)c1
- T/C (T/C endpoint: mean survival time, dose: 16.0 mg/kg/injection, schedule: Q01DX010 (ip), vehicle: saline): 127 % of control

SMILES: CCC12CCCN3CCc4c(n(c5ccccc45)C(O)(C(=O)OC)C1)C32 (stereo not drawn)
- survivor count [9]: 6 of 6

SMILES: CC(=O)OCC1OC(n2ncc(=O)[nH]c2=O)C(OC(C)=O)C1OC(C)=O (stereo not drawn)
- survivor count (T/C endpoint: mean survival time, dose: 1014.0 mg/kg/injection, schedule: Q01DX010 (ip), vehicle: saline): 6 of 6
